Results on 107 sequences are retold here after PubChem BioAssay AID1508600 (Functional Genomics Laboratory (NCATS/FGL), 2020).

The whole screen tested about 53,000 sequences, of which about 3,700 (7%) were called active.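 How the source made its calls: active means gene knockdowns whose robust z-score for IL-1 alpha signal is at least 2 or at most -2, so actives lie on both sides; inactive means the rest.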 This is one part of the list.

A short description of this experiment: Components of the Cytosolic LPS Sensing Pathway: Gene Identification via Genome-wide siRNA Screen.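 Further: robust z of the log signal after scaling to non-targeting control siRNA wells of the plate.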 Particulars: RAW264.7 macrophages, IL-1a HTRF, actives lie on both sides, screened at 100 nM (by protocol), cells primed 5 h with Pam3CSK4 first. Summed up:
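Using IL-1a HTRF as read-out, the screen measured release from RAW264.7 cells after 48h siRNA knockdown (100 nM), 5 h Pam3CSK4 priming and 24 h cytosolic LipidA. Values were expressed relative to negative-control wells as robust z-scores.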
On to GGUUACCAUCAUUUAGAGATT against Pot1b, for which the z-score is inactive: -1.27.
With CCAUAUCAGUUCAUUCCAATT against Dok7 the figure was inactive: -0.98.
Next, GGAUUUUCUACUCUAAAGATT against Tnfrsf19: inactive: -0.226; GGGCCUUUGAAAACACCCUTT against Dgkd: inactive: 0.363.
With CCUACGAGUUCAUCGUGUATT against Slc25a33 the figure was inactive: 0.187; with GGAACUUUGCCAUCUCUCCTT against Insrr, inactive: -0.0829; with GGUGGUUAUGAUCUAUGAUTT against Dazap1, inactive: -1.43.
On to GGAACUUCCUGAGGAUAAGTT against Ccdc28a, for which the z-score was inactive: 0.0804.
With GGACUUCUACCACUGGAGGTT against Alox12b the figure was inactive: -0.39; with GCCAGUACCCAUAUGACAGTT against Irx4, inactive: 0.698; with GGACAUGUCCGAAUACUACTT against Pdss1, active: 2.34.
With CCAAAUUGUCUCUUCUAACTT against Dnah1 the figure was inactive: 0.0269.
In the case of GGUGAAGCAGAUCAACAAGTT against Stmn2, the z-score is inactive: 0.107.
As for GGAGUAUCGGUGACUACGGTT against Chst9, the z-score is inactive: -1.34.
With GGUUAUCUUCUCUGUAACGTT against Nsun3 the figure was inactive: 0.496; with GGCCAUUGUGACAAACAGATT against Ltf, inactive: -0.69; with GCCAGCUAAAGAAGUCUAUTT against Gpr17, active: 2.81.
For the sequence CGACCCUAAUCUGGUGAACTT against Mfap5, the z-score was inactive: -0.283.
With “GGCCAUGUGUAAUUGAAGATT against 9230112E08Rik” the figure was inactive: 0.216; with GGACCAGAAACGCAUGCUUTT against Maml3, inactive: -0.762.
Take GGCAUUUUCUAAUGGCUAUTT against Spef2: the z-score was inactive: 1.33.
With GGUAUCAAUAAAGUUGUUGTT against Stk11ip the figure was inactive: 1.09.
Next, GGUAACCAGUCAACACCCUTT against Cd19: inactive: 0.841; GGUGGCUCUCCAAGUUCUATT against Uchl4: inactive: -0.279; GGAAGAGUGUUUAAACUAUTT against Kbtbd8: inactive: -0.591.
Next, GCGAGAACCAAGACCUUUCTT against Tyms: inactive: -0.248; GGCUGUAAUUUUGAACAAUTT against Rnf17: inactive: -1.42; GGACAAAGUCACAGAGUCCTT against Slc26a5: active: -2.08.
For the sequence GGAGAAAAUCAAGGUGUUATT against Cux2, the z-score is inactive: -0.361.
For the sequence CGACCACUUGGUGAUGCUCTT against Rcc1, the z-score was inactive: 0.964.
Next, GGUGAAGCAGAAAGAAAACTT against Pank4: inactive: -0.477; GGAACCAGAAAGGACAGUCTT against H2-Eb1: inactive: 0.538; GGAACCUAGAGAAAAAGAATT against Iyd: inactive: -1.18.
Take GGAAUCAAAUUUGAUGCCATT against Cckar: the z-score was inactive: 0.479.
With GCUAGCACUAAGUGAACCUTT against Ppp1r21 the figure was inactive: 1.25; with GGAGAUCGUGGAGAUGUACTT against Myh9, inactive: -0.13; with GGCAAACUCUAUCUCCAAATT against Ier5l, inactive: 0.252.
Next, GCUACAUCUGCUUCCUUUUTT against Olfr623: inactive: -0.311.
With GCCUGCAUUUACAAGUACUTT against Itm2a the figure was inactive: 0.646; with GGUGAUCAUAUAAGUUAGUTT against Ankrd39, inactive: -0.874; with GGAGCAUCUAUGAUUACAATT against Iqcg, active: 3.24.
For GGAGGUCUACAUUUAUUAATT against Dera, the z-score is inactive: 1.31.
UCCAUUUCGACCCUUGUACTT against Romo1: the z-score is active: -2.88.
Turning to GGGCAAGCCACUCAUGUUGTT against Me2, the z-score is inactive: -0.997.
As to GGCCAAUAGGACAUAUCUATT against Qprt, the z-score was inactive: -0.443.
With GCAUAAAAAACGAAUAGAGTT against Smc1b the figure was inactive: -0.432; with GGAGGUUGAAGUGCAGGAATT against Mab21l1, inactive: 1.41.
Next, GCUUUUGUGUCAUGUUGCATT against Ncdn: inactive: -1.09; CCAUUUUAACCAAUGGUGUTT against Olfr572: inactive: -1.06; GGAGACCACAGACCUCAAATT against Fcgrt: inactive: -0.593.
On to CCUACCUCCUGAAUUUAUUTT against Cnot11, for which the z-score is inactive: -0.11.
For the sequence CCAGAAUCGAAAUAACCAGTT against Rpgrip1, the z-score was inactive: 0.822.
Regarding GGUACAAGGUGAAGACUUCTT against Reg3a, the z-score was inactive: 1.48.
With CCUACUCAAGAAGCUCAGUTT against Hpse the figure was active: -2.47.
In the case of GGACAAGAAUUGGAACAAATT against Zfp84, the z-score was inactive: 1.43.
Turning to GCAUCUCCUGCCAAAGCAGTT against Ms4a2, the z-score was inactive: -0.381.
Consider GCCUACAAAACAACACUACTT against BC048562, for which the z-score was inactive: -0.0074.
Consider GGUAUACAAUCCUUACCGUTT against Cyp4f39, for which the z-score was inactive: 0.565.
Next, GGCGGACUUGGAUUACAGCTT against Rassf10: active: 2.21; GGACUGAAAGAAAUCAGAATT against Asxl2: inactive: 0.434; GGUGUUGGAAACAAUCAGATT against Cd59a: inactive: 1.21.
Regarding GCGGGAACCAUUUUUGUGATT against Cdh11, the z-score is inactive: -1.18.
As for GACUCUGCUUUUUGUGUUATT against Olfr958, the z-score was inactive: 1.05.
With GGAAAAGAUGAAGACUACATT against Ifnar2 the figure was inactive: -0.636.
GGGAAACAAGCAUCUUCUGTT against Bmp5: the z-score was inactive: -0.474.
With GGGCAACUUCCUCAGACAUTT against Cav2 the figure was inactive: 0.245; with GGAAUCAUCGGUUCUGUGUTT against Cldn16, inactive: -0.589.
Next, GCACAUUUAUCCCGGUGUATT against Pnpla2: active: -2.01; GGCCGAUGAUAAAAAUGAATT against Cnga1: inactive: -0.0836.
Take CGUCUACUUCGUACAAAUGTT against Slc22a14: the z-score was inactive: 0.0893.
Regarding GCCACCUAAUUGAUUUCCGTT against Ggt7, the z-score was inactive: 0.0552.
Next, GGGUUUGACCUGAUUUCUCTT against Col9a1: inactive: 0.305; GAUUUUUCAAAUCUUUGGCTT against Plac8: inactive: -1.52.
Next, UAAGUGUUGUCUUCCUUUUTT against Olfr1360: inactive: 0.658.
Next, CGGGAAGCUUUCCUAAACUTT against Serpinb9d: inactive: 0.497; GGAAAAUGUUUGGACUUUGTT against Cnep1r1: inactive: -0.0623.
Turning to GGUGAUGGAAGAAAAUACCTT against Pcdhb22, the z-score is inactive: 1.83.
In the case of GGAACUAGAACCAGAGUCCTT against Mrpl54, the z-score is inactive: -0.0282.
Regarding GCUCUAAUCAAUCAGUUAATT against Lnpep, the z-score is inactive: -0.294.
With GGUCAGUUCCUAGCUUCACTT against Gucy1b2 the figure was inactive: -0.715; with CGGCAUUUGCUAAUGGUCGTT against Actl6a, active: -2.79.
Take GGAUCCCAGAUUGAAAACUTT against Rnf5: the z-score is inactive: -0.92.
Next, GCUGUACGUGCUUGGUUAGTT against Isl1: inactive: -0.456; “GGAAGAUGAUUUCUCCUUCTT against 2900026A02Rik”: inactive: 0.471.
Take GGCCAUCUUCCUGUUUGUGTT against Gabarapl2: the z-score is inactive: 0.196.
Next, GGCACACAAAAGAAUACCUTT against Sobp: inactive: -0.501; GGAGACUUUGUCGUGUUUATT against Supt20: inactive: -0.106; GGCUUUUGUCAAGCAGCACTT against Ins2: inactive: -0.628.
Next, GGCUCUGCUGAAUAACCUGTT against Gcnt3: inactive: -1.45.
With GGAGAAAGACAACUUCCUATT against Clec7a, the z-score is inactive: 0.239.
Next, GGAAAUGUGGAGCUCAACGTT against Smap2: inactive: -0.618.
As for CCAAGUUCACAAUUGUUCUTT against Gimap8, the z-score is inactive: -0.263.
As to GCCCUCAUUUGUCCUACAUTT against Arhgef2, the z-score is inactive: 0.202.
Regarding GCAGUCAUGAGAAAUACUATT against Irak1, the z-score was inactive: -0.0477.
With GGAUCUAUUUGGCAGAUUUTT against Pabpc6 the figure was inactive: 1.09.
Take GCUAUUUCAGGCACAAUAATT against Srprb: the z-score is inactive: 0.287.
With GGGAGCCAGGAGAAGUUGUTT against Spin1 the figure was inactive: 0.814.
Next, GGCAUGGAGAGGAACUUCUTT against Siglec1: inactive: -1.55.
With GGUUCACACCAAAGAGCAGTT against Zkscan6 the figure was inactive: 0.909; with CGACCAAUGGGACAAUGCATT against Prss12, inactive: 0.914.
Turning to “GGAUAACAGCACUUUCCAGTT against 2700062C07Rik”, the z-score is inactive: 0.344.
With GGUAAAAUGGAACUACAUGTT against Igf2bp3 the figure was inactive: 0.23.
With CCGUUACCUUUUAAGCCUGTT against Socs6 the figure was inactive: -1.2.
With GGUCAUGGAUGUGCACGAUTT against Krt14 the figure was active: -2.21.
On to GGACUUUUUAUACUGUGGATT against Septin2, for which the z-score was inactive: -0.381.
With GGCUAAGAUUCAGGUCUUUTT against Crygs the figure was inactive: -0.0763.
Consider GGAUUGAGCAGUGUCUAGUTT against Otos, for which the z-score was inactive: -0.684.
